Publication PMC12286604
No constants are given. Whether binding was seen depends on the method and setting. Binding seen in cells or lysates may run through a third protein. Some entries that bind do so weakly or less than the wild type. One block for each binder: values may come before it.

Amino acid sequences for entries named in this document (tags omitted).
UniProt Q07817: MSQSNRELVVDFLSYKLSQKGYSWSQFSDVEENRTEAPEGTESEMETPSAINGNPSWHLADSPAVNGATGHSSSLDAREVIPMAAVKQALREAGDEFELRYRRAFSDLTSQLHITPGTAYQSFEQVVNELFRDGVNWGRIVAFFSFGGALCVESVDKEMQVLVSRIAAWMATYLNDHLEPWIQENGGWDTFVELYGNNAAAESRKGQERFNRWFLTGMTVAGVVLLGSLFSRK
UniProt Q07820: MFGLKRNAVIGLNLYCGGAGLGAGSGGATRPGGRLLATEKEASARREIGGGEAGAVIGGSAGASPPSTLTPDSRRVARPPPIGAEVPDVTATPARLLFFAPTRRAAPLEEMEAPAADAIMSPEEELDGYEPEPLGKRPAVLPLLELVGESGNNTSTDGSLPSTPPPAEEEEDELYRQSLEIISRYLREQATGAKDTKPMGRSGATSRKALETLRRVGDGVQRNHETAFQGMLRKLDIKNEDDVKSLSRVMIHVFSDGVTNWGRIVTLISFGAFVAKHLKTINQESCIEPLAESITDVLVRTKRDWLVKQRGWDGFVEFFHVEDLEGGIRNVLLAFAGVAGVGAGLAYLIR
UniProt P10415: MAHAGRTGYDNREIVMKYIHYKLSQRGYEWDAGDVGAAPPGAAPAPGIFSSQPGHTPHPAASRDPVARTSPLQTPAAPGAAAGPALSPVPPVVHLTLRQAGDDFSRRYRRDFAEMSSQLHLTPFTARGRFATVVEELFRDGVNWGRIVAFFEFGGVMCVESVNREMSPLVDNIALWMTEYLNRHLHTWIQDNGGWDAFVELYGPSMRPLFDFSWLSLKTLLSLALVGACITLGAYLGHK
UniProt Q07812: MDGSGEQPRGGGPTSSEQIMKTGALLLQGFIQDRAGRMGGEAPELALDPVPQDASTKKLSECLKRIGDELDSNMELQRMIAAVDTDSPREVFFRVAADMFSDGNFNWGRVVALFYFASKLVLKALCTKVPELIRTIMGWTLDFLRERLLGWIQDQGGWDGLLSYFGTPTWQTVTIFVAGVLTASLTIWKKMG

Assays:
[1] = molecular target: T1, WSB2 (WD repeat and SOCS box-containing protein 2), wild type, transfected (UniProt Q9NYS7); assay: co-IP; semi-endogenous co-IP: anti-FLAG IP from 293T cells transfected with WSB2, endogenous partners detected by western blot
T1 sequence: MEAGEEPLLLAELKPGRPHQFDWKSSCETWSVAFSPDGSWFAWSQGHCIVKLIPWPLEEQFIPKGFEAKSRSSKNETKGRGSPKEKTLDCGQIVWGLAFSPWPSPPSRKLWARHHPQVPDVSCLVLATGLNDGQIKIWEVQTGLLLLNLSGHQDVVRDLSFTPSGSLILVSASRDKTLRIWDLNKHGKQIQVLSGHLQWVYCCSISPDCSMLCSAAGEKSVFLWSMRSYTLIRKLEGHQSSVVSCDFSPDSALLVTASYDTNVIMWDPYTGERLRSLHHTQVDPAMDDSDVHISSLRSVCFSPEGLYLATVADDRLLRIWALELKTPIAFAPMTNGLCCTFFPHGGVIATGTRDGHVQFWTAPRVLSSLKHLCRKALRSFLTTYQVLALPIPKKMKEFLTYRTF

BCL-XL, transfected = BCL-XL, transfected (UniProt Q07817); assay: co-IP; exogenous co-IP: anti-FLAG IP from whole-cell lysate of 293T cells transfected with plasmids for both partners, western blot; which partner bore FLAG is not given
BAD, transfected = molecular target: T2, BAD, transfected (UniProt Q92934); assay: as above
T2 sequence: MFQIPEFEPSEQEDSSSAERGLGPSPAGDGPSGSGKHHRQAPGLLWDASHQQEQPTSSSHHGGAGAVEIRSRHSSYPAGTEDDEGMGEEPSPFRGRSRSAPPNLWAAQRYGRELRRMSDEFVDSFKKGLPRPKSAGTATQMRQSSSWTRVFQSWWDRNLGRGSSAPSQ

MCL-1, transfected = MCL-1, transfected (UniProt Q07820); assay: as above
BCL-2, transfected = BCL-2, transfected (UniProt P10415); assay: as above
BAK, transfected = molecular target: T3, BAK, transfected (UniProt Q16611); assay: as above
T3 sequence: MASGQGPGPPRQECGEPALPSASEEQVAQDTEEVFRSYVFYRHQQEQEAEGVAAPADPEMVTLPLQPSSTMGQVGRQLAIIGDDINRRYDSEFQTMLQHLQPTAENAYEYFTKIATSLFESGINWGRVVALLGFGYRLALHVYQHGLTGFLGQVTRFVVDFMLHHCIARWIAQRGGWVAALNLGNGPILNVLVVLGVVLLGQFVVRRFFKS

BAX, transfected = BAX, transfected (UniProt Q07812); assay: as above
BCL-W, transfected = molecular target: T4, BCL-W, transfected (UniProt Q92843); assay: as above
T4 sequence: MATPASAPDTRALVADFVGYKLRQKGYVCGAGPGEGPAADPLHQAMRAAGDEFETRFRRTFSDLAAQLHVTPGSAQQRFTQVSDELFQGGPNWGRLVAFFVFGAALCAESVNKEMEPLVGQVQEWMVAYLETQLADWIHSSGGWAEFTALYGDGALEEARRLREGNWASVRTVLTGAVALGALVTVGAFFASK

[2] = molecular target: T5, NOXA, endogenous (human (endogenous in 293T)), Q13794; assay: co-IP; endogenous co-IP: IgG or anti-NOXA, anti-MCL-1, anti-BCL-2, anti-BCL-XL or anti-BAD antibodies, 293T whole-cell lysate, western blot; conditions: remark: other sources report otherwise
T5 chain: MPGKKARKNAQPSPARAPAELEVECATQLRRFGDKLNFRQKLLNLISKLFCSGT

[3] = molecular target: T5, NOXA, endogenous (human (endogenous in …)); assay: co-IP; endogenous co-IP with IgG or anti-NOXA from 293T cells treated 12 hr with the C-terminal cell-penetrating peptide of NOXA or the R8 peptide; conditions: remark: other sources report otherwise
[4] = molecular target: MCL-1, endogenous (human (endogenous in 293T)) (UniProt Q07820); assay: co-IP; endogenous co-IP: IgG or anti-NOXA, anti-MCL-1, anti-BCL-2, anti-BCL-XL or anti-BAD antibodies, 293T whole-cell lysate, western blot
[5] = molecular target: BCL-2, endogenous (human (endogenous in 293T)) (UniProt P10415); assay: as above
[6] = molecular target: BCL-XL, endogenous (human (endogenous in 293T)) (UniProt Q07817); assay: as above
[7] = molecular target: T6, BAD, endogenous (human (endogenous in 293T)) (UniProt Q92934); assay: as above
T6 sequence: T2 sequence

[8] = molecular target: T7, NOXA, wild type, transfected, Q13794; assay: co-IP; WSB2-NOXA complex co-immunoprecipitated by anti-FLAG antibody from transfected 293T cells, then the bound complex incubated 12 hr with C-terminal NOXA peptide (200 and 400 μg/ml) or scramble peptide; bound material by western blot; conditions: remark: other sources report otherwise
T7 chain: T5 chain

[9] = molecular target: T7, NOXA, wild type, transfected, Q13794; assay: co-IP; exogenous co-IP: anti-FLAG IP from whole-cell lysate of 293T cells transfected with plasmids for both partners, western blot; which partner bore FLAG is not given; conditions: remark: other sources report otherwise
[10] = molecular target: T1, WSB2 (WD repeat and SOCS box-containing protein 2), wild type, transfected; assay: co-IP; competition: synthetic C-terminal NOXA peptide (200 and 400 μg/ml, 12 hr) added to the anti-FLAG-bound WSB2-NOXA complex from transfected 293T cells; only the binder purified
[11] = molecular target: T8, WSB2, endogenous (human (endogenous in 293T)) (UniProt Q9NYS7); assay: co-IP; competition in cells: 293T cells treated 12 hr with the synthetic C-terminal cell-penetrating peptide of NOXA or R8 peptide, then IP with IgG or anti-NOXA; only the binder purified
T8 sequence: T1 sequence

[12] = molecular target: T9, WSB2 (WD repeat and SOCS box-containing protein 2), wild type, transfected, Q9NYS7; assay: co-IP; semi-endogenous co-IP: anti-FLAG IP from 293T cells transfected with WSB2, endogenous partners detected by western blot; conditions: remark: other sources report otherwise
T9 chain: T1 sequence

binding [1]: binds
B1: BAD, endogenous (protein, UniProt Q92934 1-168)
chain: T2 sequence

binding (BCL-XL, transfected): binds | binding (BAD, transfected): binds | binding (MCL-1, transfected): binds | binding (BCL-2, transfected): binds | binding (BAK, transfected): no binding | binding (BAX, transfected): no binding | binding (BCL-W, transfected): no binding
B2: WSB2 (WD repeat and SOCS box-containing protein 2), wild type, transfected (protein, UniProt Q9NYS7 1-404)
chain: T1 sequence

binding [2]: binds | binding [3]: binds
B3: WSB2, endogenous, Q9NYS7 1-404 (protein)
chain: T1 sequence

binding [4]: binds | binding [5]: binds | binding [6]: binds | binding [7]: binds
B4: WSB2, endogenous (protein, UniProt Q9NYS7 1-404)
chain: T1 sequence

binding [8]: binds | binding [9]: binds
B5: WSB2 (WD repeat and SOCS box-containing protein 2), wild type, transfected, Q9NYS7 1-404 (protein)
chain: T1 sequence

binding [10]: binds
B6: C-terminal NOXA peptide (40-54 aa) (peptide, UniProt Q13794 40-54)
peptide: QKLLNLISKLFCSGT

binding [11]: binds
B7: C-terminal cell-penetrating peptide of NOXA (C-terminal NOXA peptide connected to poly-arginine R8) (peptide, UniProt Q13794 40-54)
peptide: RRRRRRRRQKLLNLISKLFCSGT

binding [12]: binds
B8: NOXA, endogenous, Q13794 1-54 (protein)
chain: T5 chain
